± gives the standard deviation of the averaged measurements. The list shows a part of the results.
Target: T1, UniProt Q6IN85 and related entries
T1 sequence (whole entry): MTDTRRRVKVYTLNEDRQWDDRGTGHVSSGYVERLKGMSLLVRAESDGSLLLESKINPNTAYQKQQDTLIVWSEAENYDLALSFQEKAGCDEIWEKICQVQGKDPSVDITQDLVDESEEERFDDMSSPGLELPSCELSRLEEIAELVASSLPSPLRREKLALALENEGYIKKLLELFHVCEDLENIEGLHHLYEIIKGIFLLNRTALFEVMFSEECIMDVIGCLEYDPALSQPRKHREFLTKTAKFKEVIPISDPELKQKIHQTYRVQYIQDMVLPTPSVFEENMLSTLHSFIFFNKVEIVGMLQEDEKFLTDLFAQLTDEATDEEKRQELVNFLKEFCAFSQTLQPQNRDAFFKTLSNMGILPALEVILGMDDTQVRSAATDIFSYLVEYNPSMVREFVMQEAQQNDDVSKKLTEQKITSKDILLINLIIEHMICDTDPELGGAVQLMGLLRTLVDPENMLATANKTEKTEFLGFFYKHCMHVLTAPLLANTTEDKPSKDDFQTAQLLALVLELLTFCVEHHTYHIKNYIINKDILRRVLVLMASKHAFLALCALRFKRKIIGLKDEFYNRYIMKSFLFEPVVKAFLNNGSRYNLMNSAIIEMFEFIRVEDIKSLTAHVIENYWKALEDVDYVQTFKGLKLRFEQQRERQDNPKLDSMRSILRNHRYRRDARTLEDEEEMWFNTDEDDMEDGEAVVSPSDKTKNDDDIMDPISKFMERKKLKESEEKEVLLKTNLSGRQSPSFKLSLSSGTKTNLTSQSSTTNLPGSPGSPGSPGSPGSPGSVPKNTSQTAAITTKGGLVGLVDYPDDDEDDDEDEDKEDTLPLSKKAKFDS
Assay: NP40-soluble protein abundance relative to vehicle (solubility fold change) (ratio); higher = more soluble protein in presence of GTP
Experimental: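 Solubility proteome profiling in Jurkat crude lysate. Lysate was treated with Mg-GTP (0.1-10 mM) for 10 min at room temperature and 3 min at 37 °C, then solubilised with 0.8% NP40 and benzonase, followed by ultracentrifugation. Proteins were quantified by TMT10 LC-MS/MS; the value is the NP40-soluble abundance relative to the NP40-processed vehicle, from 3 independent experiments.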

Nc1nc2c(ncn2[C@@H]2O[C@H](COP(=O)(O)OP(=O)(O)OP(=O)(O)O)[C@@H](O)[C@H]2O)c(=O)[nH]1 [guanosine triphosphate]
NP40-soluble protein abundance (concentration: 0.1mM): 1.01 ± 0.059 | NP40-soluble protein abundance (concentration: 0.5mM): 1.05 ± 0.05 | NP40-soluble protein abundance (concentration: 1mM): 0.986 ± 0.047 | NP40-soluble protein abundance (concentration: 2mM): 0.971 ± 0.036 | NP40-soluble protein abundance (concentration: 4mM): 0.941 ± 0.046 | NP40-soluble protein abundance (concentration: 6mM): 0.939 ± 0.031 | NP40-soluble protein abundance (concentration: 8mM): 0.97 ± 0.026 | NP40-soluble protein abundance (concentration: 10mM): 0.92 ± 0.059
